Article PMC6021351
Results are given in words; binding and its absence hold for the method and conditions named. Binding seen in cells or lysates may run through a third protein. Some binding calls cover weakened binding; strength is not graded here. Blank lines part the entries; values can stand above or below the substance they belong to.

Sequences of proteins named here, by UniProt entry; tags and fusion partners are left off.
UniProt P49790: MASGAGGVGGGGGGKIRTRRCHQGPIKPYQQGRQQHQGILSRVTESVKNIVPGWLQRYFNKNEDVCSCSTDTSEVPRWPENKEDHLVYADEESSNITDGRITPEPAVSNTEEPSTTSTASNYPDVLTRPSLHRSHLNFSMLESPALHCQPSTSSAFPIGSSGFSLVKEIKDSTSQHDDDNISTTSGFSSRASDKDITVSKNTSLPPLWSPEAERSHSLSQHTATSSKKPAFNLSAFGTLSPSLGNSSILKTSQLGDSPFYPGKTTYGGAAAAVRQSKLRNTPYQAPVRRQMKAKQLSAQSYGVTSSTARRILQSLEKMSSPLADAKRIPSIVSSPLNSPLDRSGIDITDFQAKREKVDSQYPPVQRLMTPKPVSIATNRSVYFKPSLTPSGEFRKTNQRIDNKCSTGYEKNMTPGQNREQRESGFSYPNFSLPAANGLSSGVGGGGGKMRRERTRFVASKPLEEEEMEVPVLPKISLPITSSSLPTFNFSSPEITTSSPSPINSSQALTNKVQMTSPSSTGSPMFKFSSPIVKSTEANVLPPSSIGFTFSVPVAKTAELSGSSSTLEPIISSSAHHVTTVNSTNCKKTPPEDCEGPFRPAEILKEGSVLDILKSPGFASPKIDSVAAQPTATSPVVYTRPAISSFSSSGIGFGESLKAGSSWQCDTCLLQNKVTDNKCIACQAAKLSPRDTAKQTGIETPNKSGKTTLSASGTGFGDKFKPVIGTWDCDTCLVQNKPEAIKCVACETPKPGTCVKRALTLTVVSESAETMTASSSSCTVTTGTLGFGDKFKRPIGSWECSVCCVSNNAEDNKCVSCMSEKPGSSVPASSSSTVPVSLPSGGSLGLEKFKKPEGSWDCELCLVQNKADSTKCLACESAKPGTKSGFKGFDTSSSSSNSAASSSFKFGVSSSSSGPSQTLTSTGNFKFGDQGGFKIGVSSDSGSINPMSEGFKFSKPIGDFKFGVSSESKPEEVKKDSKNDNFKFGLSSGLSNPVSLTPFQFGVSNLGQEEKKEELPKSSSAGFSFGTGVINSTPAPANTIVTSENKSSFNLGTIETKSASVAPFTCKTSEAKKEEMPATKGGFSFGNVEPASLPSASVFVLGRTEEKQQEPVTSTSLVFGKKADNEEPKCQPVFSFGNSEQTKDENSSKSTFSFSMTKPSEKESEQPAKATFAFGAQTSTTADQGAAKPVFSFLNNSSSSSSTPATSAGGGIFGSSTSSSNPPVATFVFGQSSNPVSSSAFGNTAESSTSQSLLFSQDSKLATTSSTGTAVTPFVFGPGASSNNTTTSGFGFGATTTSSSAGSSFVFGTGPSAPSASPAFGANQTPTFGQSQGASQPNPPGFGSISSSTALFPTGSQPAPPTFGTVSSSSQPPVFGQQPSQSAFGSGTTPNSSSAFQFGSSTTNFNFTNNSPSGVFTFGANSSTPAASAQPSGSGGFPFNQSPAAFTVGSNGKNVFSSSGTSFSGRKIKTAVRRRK
UniProt Q92731: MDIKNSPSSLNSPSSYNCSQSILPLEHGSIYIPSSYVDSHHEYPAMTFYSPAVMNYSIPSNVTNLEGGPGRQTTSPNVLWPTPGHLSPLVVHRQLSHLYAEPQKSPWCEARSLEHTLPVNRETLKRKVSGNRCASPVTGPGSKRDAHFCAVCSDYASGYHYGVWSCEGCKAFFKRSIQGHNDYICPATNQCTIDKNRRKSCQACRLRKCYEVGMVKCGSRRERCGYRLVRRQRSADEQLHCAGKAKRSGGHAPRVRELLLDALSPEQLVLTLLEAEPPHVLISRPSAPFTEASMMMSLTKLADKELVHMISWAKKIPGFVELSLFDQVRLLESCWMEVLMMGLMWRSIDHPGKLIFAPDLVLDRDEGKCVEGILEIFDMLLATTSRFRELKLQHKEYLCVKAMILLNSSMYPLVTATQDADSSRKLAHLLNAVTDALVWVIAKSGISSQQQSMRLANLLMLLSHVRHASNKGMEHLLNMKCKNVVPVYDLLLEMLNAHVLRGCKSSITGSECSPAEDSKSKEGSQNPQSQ
UniProt Q09472: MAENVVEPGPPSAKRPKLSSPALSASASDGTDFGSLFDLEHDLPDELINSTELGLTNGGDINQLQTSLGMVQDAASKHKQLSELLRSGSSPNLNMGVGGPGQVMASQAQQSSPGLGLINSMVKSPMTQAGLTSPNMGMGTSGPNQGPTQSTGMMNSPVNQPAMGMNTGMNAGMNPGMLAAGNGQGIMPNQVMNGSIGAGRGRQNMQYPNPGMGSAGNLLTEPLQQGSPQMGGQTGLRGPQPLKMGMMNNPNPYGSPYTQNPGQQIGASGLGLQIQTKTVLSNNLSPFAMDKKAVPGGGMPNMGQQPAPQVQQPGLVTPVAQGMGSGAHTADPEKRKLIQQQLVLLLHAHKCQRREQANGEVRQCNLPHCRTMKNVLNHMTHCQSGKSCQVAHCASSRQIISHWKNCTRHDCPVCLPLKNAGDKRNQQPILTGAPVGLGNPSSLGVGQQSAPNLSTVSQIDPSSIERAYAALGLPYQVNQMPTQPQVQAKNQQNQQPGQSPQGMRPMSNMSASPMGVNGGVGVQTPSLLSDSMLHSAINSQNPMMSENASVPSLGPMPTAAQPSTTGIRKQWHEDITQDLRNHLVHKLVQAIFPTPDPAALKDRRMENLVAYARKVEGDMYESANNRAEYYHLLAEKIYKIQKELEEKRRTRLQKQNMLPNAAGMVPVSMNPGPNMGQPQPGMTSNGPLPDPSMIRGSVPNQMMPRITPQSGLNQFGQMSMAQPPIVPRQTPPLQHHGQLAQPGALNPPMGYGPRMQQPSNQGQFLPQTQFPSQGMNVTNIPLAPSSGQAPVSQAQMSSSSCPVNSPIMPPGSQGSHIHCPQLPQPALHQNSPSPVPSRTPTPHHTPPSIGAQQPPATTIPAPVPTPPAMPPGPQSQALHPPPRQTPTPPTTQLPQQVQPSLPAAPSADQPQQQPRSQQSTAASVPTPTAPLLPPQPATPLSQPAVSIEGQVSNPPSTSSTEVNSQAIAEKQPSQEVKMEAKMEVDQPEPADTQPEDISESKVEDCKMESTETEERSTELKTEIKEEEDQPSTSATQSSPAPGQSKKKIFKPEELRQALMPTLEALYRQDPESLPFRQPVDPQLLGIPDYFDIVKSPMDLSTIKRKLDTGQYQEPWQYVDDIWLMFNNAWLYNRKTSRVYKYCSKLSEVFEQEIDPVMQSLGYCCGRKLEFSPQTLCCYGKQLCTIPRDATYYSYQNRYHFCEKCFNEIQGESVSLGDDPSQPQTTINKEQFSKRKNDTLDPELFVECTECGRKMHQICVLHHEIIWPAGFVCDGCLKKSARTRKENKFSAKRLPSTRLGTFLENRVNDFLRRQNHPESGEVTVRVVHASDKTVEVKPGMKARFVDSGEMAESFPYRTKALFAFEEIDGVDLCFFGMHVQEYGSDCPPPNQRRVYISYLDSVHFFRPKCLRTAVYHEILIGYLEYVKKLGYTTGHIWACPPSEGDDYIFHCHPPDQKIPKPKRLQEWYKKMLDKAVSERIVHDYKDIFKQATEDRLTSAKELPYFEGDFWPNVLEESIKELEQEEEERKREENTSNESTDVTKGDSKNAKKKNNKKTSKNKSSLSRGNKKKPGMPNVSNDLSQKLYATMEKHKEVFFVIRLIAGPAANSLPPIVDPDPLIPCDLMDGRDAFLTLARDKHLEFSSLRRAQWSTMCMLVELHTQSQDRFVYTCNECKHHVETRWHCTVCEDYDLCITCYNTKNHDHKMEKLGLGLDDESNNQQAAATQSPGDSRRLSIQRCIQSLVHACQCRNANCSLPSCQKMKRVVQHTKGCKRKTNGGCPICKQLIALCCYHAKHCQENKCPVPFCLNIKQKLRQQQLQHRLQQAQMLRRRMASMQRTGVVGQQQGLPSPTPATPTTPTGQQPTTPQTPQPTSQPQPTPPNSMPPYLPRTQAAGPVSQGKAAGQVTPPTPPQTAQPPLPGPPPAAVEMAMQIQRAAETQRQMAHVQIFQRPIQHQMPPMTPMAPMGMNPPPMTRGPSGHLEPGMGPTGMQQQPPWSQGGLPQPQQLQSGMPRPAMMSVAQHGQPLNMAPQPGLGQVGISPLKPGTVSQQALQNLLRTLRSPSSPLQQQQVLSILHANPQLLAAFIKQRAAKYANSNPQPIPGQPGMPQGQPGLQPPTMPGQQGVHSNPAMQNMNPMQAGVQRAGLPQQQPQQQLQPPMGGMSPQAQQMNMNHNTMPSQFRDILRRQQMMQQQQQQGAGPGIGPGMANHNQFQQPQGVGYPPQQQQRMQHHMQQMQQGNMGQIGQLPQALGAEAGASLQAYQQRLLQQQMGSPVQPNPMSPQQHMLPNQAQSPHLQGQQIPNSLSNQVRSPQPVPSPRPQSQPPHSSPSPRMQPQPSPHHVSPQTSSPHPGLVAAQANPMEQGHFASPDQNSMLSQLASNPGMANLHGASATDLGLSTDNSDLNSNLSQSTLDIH

Assays:
[1] = biological target: Nucleoporin 153 (human (endogenous in C27IM, C38IM, C17IM and HeLa)) (UniProt P49790); assay: co-IP; immunoprecipitation with Nup153 antibody or with ERβ antibody (GeneTex #110607) from extracts of PCa cells (C27IM), basal or E2 10^-7M 24h; blots for Nup153, ERβ and eNOS; IgG as negative control; lysis buffer 50mM Tris-HCl pH 7.4, 250 mM NaCl, 0.1% tritonX100, 5mM EDTA, 0.3% Empigen BB
[2] = biological target: Nucleoporin 153 (human (endogenous in C27IM, C38IM, C17IM and HeLa)) (UniProt P49790); assay: co-IP; Nup153 and p300 in extracts of PCa cells, basal or E2 10^-7M 24h; precipitating antibody not stated; IgG as negative control
[3] = biological target: T1, endothelial nitric oxide synthase (human (endogenous in C27IM, C38IM, C17IM and HeLa)) (UniProt P29474); assay: co-IP; immunoprecipitation for eNOS from extracts of PCa (C38IM, C27IM) and BPH (C17IM) cells in basal condition, blot for Nup153; IgG as negative control; lysis buffer 50mM Tris-HCl pH 7.4, 250 mM NaCl, 0.1% tritonX100, 5mM EDTA, 0.3% Empigen BB
T1 sequence: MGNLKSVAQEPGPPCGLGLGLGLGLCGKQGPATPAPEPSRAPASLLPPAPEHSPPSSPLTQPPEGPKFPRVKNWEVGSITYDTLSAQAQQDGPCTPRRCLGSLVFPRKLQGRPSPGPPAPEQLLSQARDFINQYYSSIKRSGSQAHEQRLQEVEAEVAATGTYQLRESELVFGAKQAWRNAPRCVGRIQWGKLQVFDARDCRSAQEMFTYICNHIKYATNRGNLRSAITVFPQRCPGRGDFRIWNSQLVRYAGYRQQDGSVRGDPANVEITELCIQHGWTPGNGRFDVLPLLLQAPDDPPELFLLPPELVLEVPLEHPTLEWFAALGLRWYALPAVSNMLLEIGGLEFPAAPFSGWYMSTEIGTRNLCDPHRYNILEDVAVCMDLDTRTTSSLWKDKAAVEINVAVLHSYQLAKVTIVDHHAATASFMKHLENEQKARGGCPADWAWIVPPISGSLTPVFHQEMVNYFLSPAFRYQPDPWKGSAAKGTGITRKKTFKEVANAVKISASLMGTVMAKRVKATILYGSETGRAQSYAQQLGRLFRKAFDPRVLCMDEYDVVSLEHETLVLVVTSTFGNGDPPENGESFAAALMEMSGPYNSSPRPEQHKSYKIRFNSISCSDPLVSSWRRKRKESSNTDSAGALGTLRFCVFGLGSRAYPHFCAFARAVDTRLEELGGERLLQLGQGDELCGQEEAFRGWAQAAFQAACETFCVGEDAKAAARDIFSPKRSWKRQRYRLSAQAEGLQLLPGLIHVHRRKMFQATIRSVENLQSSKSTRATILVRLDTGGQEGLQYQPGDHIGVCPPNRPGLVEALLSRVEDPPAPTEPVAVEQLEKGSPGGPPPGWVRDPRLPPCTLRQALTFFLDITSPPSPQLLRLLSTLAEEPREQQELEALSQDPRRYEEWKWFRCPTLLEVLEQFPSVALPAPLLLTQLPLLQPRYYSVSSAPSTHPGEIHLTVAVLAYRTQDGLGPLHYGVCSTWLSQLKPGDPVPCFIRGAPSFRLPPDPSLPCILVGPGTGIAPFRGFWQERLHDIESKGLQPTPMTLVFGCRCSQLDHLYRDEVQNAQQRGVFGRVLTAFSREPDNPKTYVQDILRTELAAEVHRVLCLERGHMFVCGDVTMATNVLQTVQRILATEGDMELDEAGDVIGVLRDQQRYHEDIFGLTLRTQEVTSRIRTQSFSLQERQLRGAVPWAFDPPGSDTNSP

[4] = biological target: Estrogen Receptor beta (endogenous in PCa cells) (human (endogenous in C27IM)) (UniProt Q92731); assay: co-IP; immunoprecipitation with Nup153 antibody or with ERβ antibody (GeneTex #110607) from extracts of PCa cells (C27IM), basal or E2 10^-7M 24h; blots for Nup153, ERβ and eNOS; IgG as negative control; lysis buffer 50mM Tris-HCl pH 7.4, 250 mM NaCl, 0.1% tritonX100, 5mM EDTA, 0.3% Empigen BB
[5] = biological target: Nucleoporin 153 (human (endogenous in C27IM, C38IM, C17IM and HeLa)) (UniProt P49790); assay: co-IP; immunoprecipitation with Nup153 antibody from HeLa cells transfected with human ERβ full-length (530aa) or empty vector, before and after E2 10^-7M 24h; blots for Nup153, ERβ (CWK-F12) and eNOS; IgG as negative control

binding [1]: binds
Substance: Estrogen Receptor beta (endogenous in PCa cells) (from UniProt Q92731 1-530)

binding [2]: binds
Substance: Histone Acetyl Transferase p300 (from UniProt Q09472 1-2414) (enzyme)

binding [3]: binds
binding [4]: binds
Substance: Nucleoporin 153 (from UniProt P49790 1-1475)

binding [5]: binds
Substance: human ERβ full-length (530aa) (from UniProt Q92731 1-530) (receptor)
